Results as given in paper PMC9578707.
These are yes or no findings as the source states them, for the method shown.

Chains of the proteins cited; added tags and fusions are not shown. Residues count along the entry.
UniProt P23468, residues 21-1265: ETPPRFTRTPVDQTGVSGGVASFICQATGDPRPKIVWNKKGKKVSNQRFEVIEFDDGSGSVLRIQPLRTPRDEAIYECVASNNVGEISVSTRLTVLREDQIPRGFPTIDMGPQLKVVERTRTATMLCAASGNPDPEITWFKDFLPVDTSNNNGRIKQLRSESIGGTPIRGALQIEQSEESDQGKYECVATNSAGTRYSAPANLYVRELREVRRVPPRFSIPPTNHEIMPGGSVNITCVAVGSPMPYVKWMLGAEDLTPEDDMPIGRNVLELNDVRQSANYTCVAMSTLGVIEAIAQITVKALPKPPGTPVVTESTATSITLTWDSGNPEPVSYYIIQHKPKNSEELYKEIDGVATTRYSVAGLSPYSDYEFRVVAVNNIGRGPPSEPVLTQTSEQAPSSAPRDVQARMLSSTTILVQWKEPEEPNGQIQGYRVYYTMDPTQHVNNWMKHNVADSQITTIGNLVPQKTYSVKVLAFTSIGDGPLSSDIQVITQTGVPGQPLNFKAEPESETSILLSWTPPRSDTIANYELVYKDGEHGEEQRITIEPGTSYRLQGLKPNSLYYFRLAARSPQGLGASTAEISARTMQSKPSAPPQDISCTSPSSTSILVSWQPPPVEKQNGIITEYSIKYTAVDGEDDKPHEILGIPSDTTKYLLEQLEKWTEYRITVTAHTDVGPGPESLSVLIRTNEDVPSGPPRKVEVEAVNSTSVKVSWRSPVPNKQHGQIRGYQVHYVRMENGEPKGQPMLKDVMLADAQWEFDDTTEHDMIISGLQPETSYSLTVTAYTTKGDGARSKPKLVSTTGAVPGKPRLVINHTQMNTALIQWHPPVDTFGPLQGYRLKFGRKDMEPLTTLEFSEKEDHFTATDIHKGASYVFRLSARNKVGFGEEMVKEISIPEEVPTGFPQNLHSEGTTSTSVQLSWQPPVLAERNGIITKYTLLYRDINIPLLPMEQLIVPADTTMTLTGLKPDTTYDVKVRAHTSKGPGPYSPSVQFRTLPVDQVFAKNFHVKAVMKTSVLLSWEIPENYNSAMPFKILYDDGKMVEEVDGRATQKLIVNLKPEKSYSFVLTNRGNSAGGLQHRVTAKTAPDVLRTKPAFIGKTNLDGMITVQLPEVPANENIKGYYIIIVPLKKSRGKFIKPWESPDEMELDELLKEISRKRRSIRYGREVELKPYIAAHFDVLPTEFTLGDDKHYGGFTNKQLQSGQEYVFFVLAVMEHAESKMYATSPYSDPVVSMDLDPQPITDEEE

Legend:
PTPRJ ECD (human) = target: T1, PTPRJ ECD (human) (UniProt Q12913); experiment: SPR; Biacore T100; biotinylated receptor ECD or hit protein captured on a streptavidin chip (~100-200 RU), non-biotinylated secreted ligand as analyte in twofold dilutions; HBS-P+ buffer; 1:1 Langmuir model or equilibrium fit; both purified
T1 sequence (chain, biotin where captured on the streptavidin chip): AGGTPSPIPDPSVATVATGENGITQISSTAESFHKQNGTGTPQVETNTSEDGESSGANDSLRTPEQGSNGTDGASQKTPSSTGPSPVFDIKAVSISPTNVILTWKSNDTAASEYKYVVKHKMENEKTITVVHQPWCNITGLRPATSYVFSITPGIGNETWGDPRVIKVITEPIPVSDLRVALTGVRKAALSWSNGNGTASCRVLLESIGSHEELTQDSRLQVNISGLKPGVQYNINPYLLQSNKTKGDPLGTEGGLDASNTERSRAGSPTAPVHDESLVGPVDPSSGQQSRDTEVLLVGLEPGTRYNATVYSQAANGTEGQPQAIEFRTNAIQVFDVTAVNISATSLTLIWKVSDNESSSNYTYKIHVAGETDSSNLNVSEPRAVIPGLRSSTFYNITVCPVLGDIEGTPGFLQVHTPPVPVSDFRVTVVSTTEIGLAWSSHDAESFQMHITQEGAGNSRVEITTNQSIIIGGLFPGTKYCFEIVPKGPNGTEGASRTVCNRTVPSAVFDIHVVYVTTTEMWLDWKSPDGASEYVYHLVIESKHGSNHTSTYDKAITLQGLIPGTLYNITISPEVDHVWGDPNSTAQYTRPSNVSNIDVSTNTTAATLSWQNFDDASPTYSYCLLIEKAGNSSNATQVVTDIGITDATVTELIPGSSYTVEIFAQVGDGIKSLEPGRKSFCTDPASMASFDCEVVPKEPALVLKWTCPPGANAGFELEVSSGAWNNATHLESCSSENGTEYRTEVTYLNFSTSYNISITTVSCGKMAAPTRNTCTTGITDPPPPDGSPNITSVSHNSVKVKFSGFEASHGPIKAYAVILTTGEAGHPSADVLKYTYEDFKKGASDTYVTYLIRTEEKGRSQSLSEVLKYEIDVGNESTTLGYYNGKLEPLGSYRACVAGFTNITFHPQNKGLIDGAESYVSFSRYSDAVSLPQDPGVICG

PTPRD ECD (human) = PTPRD ECD (human) (UniProt P23468); experiment: as above

binding (PTPRJ ECD (human)): no binding
binding (PTPRD ECD (human)): no binding
B1: Osteocrin (ligand, UniProt P61366 28-133)
chain: VDVTTTEAFDSGVIDVQSTPTVREEKSATDLTAKLLLLDELVSLENDVIETKKKRSFSGFGSPLDRLSAGSVDHKGKQRKVVDHPKRRFGIPMDRIGRNRLSNSRG
modifications: biotin (biotinylated in vitro with BirA) where used on beads
